These are yes or no findings as the source states them, for the method shown. Binding seen in cells or lysates may run through a third protein. Some results given as binding are weak or reduced against the parent protein; the word gives no strength. Sequences can lack the tags named with a protein.
Key:
[1] = target: T1, FLAG-tagged wild-type FAM188B (human) (UniProt Q4G0A6); assay: co-IP; FLAG-tagged wild-type or deletion-mutant FAM188B overexpressed in HCT-116 cells, immunoprecipitated with anti-FLAG antibodies, blotted for USP7
T1 sequence: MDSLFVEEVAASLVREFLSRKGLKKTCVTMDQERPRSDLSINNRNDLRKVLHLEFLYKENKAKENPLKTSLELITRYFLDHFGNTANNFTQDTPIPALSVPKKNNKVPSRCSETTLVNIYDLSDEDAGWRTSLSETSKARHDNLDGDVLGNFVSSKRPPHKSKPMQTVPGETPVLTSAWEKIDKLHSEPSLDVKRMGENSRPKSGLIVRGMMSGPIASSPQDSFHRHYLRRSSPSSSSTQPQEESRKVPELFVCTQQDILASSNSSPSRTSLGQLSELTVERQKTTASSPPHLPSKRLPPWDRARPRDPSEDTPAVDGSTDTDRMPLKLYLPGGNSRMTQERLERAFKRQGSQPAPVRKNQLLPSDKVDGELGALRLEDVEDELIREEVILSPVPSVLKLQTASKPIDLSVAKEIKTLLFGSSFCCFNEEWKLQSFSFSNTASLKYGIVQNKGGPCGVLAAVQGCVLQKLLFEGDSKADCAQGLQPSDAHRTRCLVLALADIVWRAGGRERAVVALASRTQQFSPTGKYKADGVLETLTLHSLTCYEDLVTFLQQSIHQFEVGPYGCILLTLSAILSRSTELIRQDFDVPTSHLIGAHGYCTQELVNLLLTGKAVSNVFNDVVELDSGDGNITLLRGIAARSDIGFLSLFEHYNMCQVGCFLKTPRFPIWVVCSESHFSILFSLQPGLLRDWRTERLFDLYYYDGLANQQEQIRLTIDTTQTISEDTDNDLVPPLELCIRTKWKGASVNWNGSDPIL

[2] = target: T1, FLAG-tagged wild-type FAM188B (human); assay: co-IP; HCT-116 cells with FAM188B overexpression; FAM188B immunoprecipitates blotted for USP7

With “USP7 (from UniProt Q93009 1-1102) (enzyme)” the binding [1] was “binds” and the binding [2] was “binds”.
